Laboratory results published in the supplement of paper PMC8728848.
The other results are listed elsewhere or left out.

What was measured:
Assay in all cases: glycan array binding signal (z-score within array); higher = stronger binding
Details in all cases: glycan notation: IUPAC condensed, linker removed
[1] = biological target: Neu5Ac(a2-3)Gal(b1-4)GlcNAc(b1-3)Gal(b1-4)GlcNAc(b1-2)Man(a1-3)[Neu5Ac(a2-3)Gal(b1-4)GlcNAc(b1-3)Gal(b1-4)GlcNAc(b1-2)Man(a1-6)]Man(b1-4)GlcNAc(b1-4)GlcNAc
How it was run: (§1)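 Columns mapping to the same glycan were averaged after glycan names were converted to IUPAC-condensed notation. The data come from 3228 arrays in the Consortium for Functional Glycomics database, limited to those with an available protein sequence. Binding is reported as a within-array Z-score averaged across arrays of one protein sequence and across linkers.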

[2] = biological target: Neu5Ac(a2-3)Gal(b1-4)GlcNAc(b1-3)Gal(b1-4)GlcNAc(b1-3)Gal(b1-4)GlcNAc
How it was run: as §1

[3] = biological target: Neu5Ac(a2-3)Gal(b1-4)GlcNAc(b1-3)Gal(b1-4)GlcNAc(b1-3)Gal(b1-4)GlcNAc(b1-2)Man(a1-3)[Neu5Ac(a2-3)Gal(b1-4)GlcNAc(b1-3)Gal(b1-4)GlcNAc(b1-3)Gal(b1-4)GlcNAc(b1-2)Man(a1-6)]GalNAc
How it was run: as §1

[4] = biological target: Neu5Ac(a2-3)Gal(b1-4)GlcNAc(b1-3)Gal(b1-4)GlcNAc(b1-3)GalNAc
How it was run: as §1

[5] = biological target: Neu5Ac(a2-3)Gal(b1-4)GlcNAc(b1-3)Gal(b1-4)GlcNAc(b1-3)[Neu5Ac(a2-3)Gal(b1-4)GlcNAc(b1-3)Gal(b1-4)GlcNAc(b1-6)]GalNAc
How it was run: as §1

[6] = biological target: Neu5Ac(a2-3)Gal(b1-4)GlcNAc(b1-3)Gal(b1-4)GlcNAc(b1-6)[Gal(b1-3)]GalNAc
How it was run: as §1

[7] = biological target: Neu5Ac(a2-3)Gal(b1-4)GlcNAc(b1-3)Gal(b1-4)[Fuc(a1-3)]GlcNAc
How it was run: as §1

[8] = biological target: Neu5Ac(a2-3)Gal(b1-4)GlcNAc(b1-3)GalNAc
How it was run: as §1

[9] = biological target: Neu5Ac(a2-3)Gal(b1-4)GlcNAc(b1-3)[Neu5Ac(a2-3)Gal(b1-4)GlcNAc(b1-6)]GalNAc
How it was run: as §1

[10] = biological target: Neu5Ac(a2-3)Gal(b1-4)GlcNAc(b1-6)GalNAc
How it was run: as §1

[11] = biological target: Neu5Ac(a2-3)Gal(b1-4)GlcNAc(b1-6)[Gal(b1-3)]GalNAc
How it was run: as §1

[12] = biological target: Neu5Ac(a2-3)Gal(b1-4)GlcNAc(b1-6)[Neu5Ac(a2-3)Gal(b1-3)]GalNAc
How it was run: as §1

[13] = biological target: Neu5Ac(a2-3)Gal(b1-4)GlcNAc6S
How it was run: as §1

[14] = biological target: Neu5Ac(a2-3)Gal(b1-4)[Fuc(a1-3)]GlcNAc
How it was run: as §1

[15] = biological target: Neu5Ac(a2-3)Gal(b1-4)[Fuc(a1-3)]GlcNAc(b1-2)Man
How it was run: as §1

[16] = biological target: Neu5Ac(a2-3)Gal(b1-4)[Fuc(a1-3)]GlcNAc(b1-3)Gal
How it was run: as §1

[17] = biological target: Neu5Ac(a2-3)Gal(b1-4)[Fuc(a1-3)]GlcNAc(b1-3)Gal(b1-4)GlcNAc
How it was run: as §1

[18] = biological target: Neu5Ac(a2-3)Gal(b1-4)[Fuc(a1-3)]GlcNAc(b1-3)Gal(b1-4)[Fuc(a1-3)]GlcNAc(b1-3)Gal(b1-4)[Fuc(a1-3)]GlcNAc
How it was run: as §1

[19] = biological target: Neu5Ac(a2-3)Gal(b1-4)[Fuc(a1-3)]GlcNAc(b1-3)GalNAc
How it was run: as §1

[20] = biological target: Neu5Ac(a2-3)Gal(b1-4)[Fuc(a1-3)]GlcNAc(b1-6)[Gal(b1-3)]GalNAc
How it was run: as §1

[21] = biological target: Neu5Ac(a2-3)Gal(b1-4)[Fuc(a1-3)]GlcNAc(b1-6)[Neu5Ac(a2-3)Gal(b1-3)]GalNAc
How it was run: as §1

[22] = biological target: Neu5Ac(a2-3)Gal(b1-4)[Fuc(a1-3)]GlcNAc6S
How it was run: as §1

[23] = biological target: Neu5Ac(a2-3)Gal6S(b1-4)GlcNAc
How it was run: as §1

B1: CBP21 (Serratia marcescens), O83009 (protein)
chain: MNKTSRTLLSLGLLSAAMFGVSQQANAHGYVESPASRAYQCKLQLNTQCGSVQYEPQSVEGLKGFPQAGPADGHIASADKSTFFELDQQTPTRWNKLNLKTGPNSFTWKLTARHSTTSWRYFITKPNWDASQPLTRASFDLTPFCQFNDGGAIPAAQVTHQCNIPADRSGSHVILAVWDIADTANAFYQAIDVNLSK
- glycan array binding signal (z-score) [1]: -0.793
- glycan array binding signal (z-score) [2]: 1.59
- glycan array binding signal (z-score) [3]: 0.18
- glycan array binding signal (z-score) [4]: 0.287
- glycan array binding signal (z-score) [5]: 0.987
- glycan array binding signal (z-score) [6]: -0.397
- glycan array binding signal (z-score) [7]: 0.007
- glycan array binding signal (z-score) [8]: 0.048
- glycan array binding signal (z-score) [9]: -0.911
- glycan array binding signal (z-score) [10]: -1.32
- glycan array binding signal (z-score) [11]: 0.05
- glycan array binding signal (z-score) [12]: -2.09
- glycan array binding signal (z-score) [13]: 0.175
- glycan array binding signal (z-score) [14]: -1.19
- glycan array binding signal (z-score) [15]: -1.42
- glycan array binding signal (z-score) [16]: -1.01
- glycan array binding signal (z-score) [17]: 1.49
- glycan array binding signal (z-score) [18]: -1.37
- glycan array binding signal (z-score) [19]: 0.933
- glycan array binding signal (z-score) [20]: -0.477
- glycan array binding signal (z-score) [21]: -0.314
- glycan array binding signal (z-score) [22]: -0.462
- glycan array binding signal (z-score) [23]: -0.887
